Measured values from paper doi:10.1101/2024.02.22.581562.
These are yes or no findings as the source states them, for the method shown. Binding seen in cells or lysates may run through a third protein. Some binding calls cover weakened binding; strength is not graded here. For part of these data: Tags and fused reporters may be left off the sequences shown. Blank lines part the entries; values can stand above or below the molecule they belong to.

Chains of the proteins cited; added tags and fusions are not shown. Lines headed by an entry give the natural chain unless they say otherwise; changes in a name come on top. A line that says so, or that is headed by a name, gives the form on record, which may keep a tag or linker.
UniProt O60331: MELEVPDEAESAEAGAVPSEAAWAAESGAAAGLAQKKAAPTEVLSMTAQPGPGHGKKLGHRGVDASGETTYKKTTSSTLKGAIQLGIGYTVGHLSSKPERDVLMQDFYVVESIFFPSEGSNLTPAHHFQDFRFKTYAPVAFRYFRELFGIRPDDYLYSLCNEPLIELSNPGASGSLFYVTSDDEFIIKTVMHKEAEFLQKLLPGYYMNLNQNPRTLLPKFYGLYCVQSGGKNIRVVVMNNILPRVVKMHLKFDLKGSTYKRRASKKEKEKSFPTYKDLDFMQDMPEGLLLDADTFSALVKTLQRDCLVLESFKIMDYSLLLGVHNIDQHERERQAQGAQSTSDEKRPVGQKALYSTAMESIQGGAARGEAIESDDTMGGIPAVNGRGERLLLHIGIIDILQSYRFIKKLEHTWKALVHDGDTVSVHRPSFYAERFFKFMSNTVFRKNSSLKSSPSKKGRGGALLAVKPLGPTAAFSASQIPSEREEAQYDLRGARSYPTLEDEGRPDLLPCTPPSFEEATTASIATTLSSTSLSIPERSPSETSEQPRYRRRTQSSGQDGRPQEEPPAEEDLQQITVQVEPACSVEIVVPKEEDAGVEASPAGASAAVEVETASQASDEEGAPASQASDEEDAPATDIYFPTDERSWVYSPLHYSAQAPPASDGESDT
mCherry-tagged human PIPKIγ-i5 (O60331, form named): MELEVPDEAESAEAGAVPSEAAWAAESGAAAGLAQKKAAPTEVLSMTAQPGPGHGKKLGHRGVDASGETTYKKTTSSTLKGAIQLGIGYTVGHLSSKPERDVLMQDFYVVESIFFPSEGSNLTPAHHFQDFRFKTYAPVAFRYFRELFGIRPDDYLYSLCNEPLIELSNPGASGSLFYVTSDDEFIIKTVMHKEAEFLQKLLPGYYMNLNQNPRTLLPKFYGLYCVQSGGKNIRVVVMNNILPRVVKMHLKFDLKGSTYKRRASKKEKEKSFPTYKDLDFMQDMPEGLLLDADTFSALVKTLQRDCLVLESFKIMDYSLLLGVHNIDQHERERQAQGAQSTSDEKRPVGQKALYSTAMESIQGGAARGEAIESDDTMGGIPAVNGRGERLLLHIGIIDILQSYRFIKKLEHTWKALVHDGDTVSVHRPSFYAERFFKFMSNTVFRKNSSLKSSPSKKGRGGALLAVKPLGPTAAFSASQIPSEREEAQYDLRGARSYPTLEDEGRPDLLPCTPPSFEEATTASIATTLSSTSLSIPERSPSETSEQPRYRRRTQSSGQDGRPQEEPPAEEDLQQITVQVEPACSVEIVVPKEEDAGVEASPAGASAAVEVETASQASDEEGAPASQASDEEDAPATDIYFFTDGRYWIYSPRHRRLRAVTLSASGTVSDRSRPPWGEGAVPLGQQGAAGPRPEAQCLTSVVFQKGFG
UniProt O14578: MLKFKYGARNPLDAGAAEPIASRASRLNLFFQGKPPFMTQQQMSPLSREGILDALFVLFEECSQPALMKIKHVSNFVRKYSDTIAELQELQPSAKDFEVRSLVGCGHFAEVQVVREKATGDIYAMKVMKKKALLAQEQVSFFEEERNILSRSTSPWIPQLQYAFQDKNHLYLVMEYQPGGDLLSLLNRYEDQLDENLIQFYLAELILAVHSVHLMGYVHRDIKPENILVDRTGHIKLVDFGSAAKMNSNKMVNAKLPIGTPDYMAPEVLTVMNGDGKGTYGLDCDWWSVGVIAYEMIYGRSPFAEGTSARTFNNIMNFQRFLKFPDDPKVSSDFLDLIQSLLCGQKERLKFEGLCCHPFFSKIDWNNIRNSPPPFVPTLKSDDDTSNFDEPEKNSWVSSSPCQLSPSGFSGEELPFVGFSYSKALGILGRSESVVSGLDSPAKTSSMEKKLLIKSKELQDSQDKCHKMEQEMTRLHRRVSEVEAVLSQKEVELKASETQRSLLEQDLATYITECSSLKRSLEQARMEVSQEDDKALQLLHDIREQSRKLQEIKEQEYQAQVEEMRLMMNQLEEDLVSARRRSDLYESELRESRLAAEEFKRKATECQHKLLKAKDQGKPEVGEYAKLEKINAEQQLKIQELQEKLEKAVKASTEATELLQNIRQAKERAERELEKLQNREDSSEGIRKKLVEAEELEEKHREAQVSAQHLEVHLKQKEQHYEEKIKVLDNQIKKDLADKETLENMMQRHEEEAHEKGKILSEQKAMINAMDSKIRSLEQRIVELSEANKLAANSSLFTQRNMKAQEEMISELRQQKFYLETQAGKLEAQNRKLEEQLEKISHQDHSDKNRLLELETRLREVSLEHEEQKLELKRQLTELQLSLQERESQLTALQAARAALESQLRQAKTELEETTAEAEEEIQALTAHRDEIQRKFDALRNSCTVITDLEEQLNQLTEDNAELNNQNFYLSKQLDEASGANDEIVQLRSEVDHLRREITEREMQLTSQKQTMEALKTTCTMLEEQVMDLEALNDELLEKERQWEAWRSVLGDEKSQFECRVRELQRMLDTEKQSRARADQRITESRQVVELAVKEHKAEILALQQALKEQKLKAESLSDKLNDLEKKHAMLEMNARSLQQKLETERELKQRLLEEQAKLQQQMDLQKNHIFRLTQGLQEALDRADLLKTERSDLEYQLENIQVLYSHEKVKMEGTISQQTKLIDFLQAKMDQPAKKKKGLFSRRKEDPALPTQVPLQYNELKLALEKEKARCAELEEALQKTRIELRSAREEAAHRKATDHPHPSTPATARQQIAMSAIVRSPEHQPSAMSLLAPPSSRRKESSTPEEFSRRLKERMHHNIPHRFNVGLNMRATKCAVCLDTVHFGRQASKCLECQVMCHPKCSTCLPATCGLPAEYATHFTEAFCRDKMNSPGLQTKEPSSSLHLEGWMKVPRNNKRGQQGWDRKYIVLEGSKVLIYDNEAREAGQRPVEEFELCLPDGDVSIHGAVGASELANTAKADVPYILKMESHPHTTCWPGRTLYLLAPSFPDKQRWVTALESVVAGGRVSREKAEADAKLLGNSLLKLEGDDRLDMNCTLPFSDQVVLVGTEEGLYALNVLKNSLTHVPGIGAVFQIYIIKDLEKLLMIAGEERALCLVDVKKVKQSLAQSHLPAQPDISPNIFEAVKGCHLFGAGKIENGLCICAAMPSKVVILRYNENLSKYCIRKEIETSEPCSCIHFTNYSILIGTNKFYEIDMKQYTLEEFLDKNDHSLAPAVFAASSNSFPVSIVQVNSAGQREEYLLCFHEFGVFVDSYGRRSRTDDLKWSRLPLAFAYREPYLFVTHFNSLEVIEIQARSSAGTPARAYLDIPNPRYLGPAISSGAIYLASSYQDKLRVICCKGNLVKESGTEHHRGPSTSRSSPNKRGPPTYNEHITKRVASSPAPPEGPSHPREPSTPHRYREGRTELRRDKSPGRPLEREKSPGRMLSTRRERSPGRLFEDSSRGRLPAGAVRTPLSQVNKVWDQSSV

How the values were obtained:
Assay in all cases: co-IP
[1] = molecular target: PIPKIγ (endogenous, HeLa) (human (endogenous in HeLa)) (UniProt O60331)
[2] = molecular target: T1, SEPT2 (endogenous, HeLa) (human (endogenous in HeLa)) (UniProt Q15019)
T1 sequence: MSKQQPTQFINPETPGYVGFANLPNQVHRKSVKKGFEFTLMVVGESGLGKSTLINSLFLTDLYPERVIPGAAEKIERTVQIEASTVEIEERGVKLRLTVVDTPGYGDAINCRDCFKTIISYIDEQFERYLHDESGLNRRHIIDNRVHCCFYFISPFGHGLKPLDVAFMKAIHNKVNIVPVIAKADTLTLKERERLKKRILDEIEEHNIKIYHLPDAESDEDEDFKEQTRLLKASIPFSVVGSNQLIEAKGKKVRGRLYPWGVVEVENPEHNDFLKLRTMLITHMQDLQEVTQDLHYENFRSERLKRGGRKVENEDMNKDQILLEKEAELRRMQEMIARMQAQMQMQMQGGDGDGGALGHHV

[3] = molecular target: mCherry-tagged human PIPKIγ-i5 (human) (UniProt O60331)

binding [1]: binds
binding [2]: binds
Molecule: citron kinase (from UniProt O14578 1-2027)

binding [1]: binds
binding [2]: binds
B1: mitotic kinesin-like protein 1 (MKLP1) (protein, UniProt Q02241 1-960)
chain: MKSARAKTPRKPTVKKGSQTNLKDPVGVYCRVRPLGFPDQECCIEVINNTTVQLHTPEGYRLNRNGDYKETQYSFKQVFGTHTTQKELFDVVANPLVNDLIHGKNGLLFTYGVTGSGKTHTMTGSPGEGGLLPRCLDMIFNSIGSFQAKRYVFKSNDRNSMDIQCEVDALLERQKREAMPNPKTSSSKRQVDPEFADMITVQEFCKAEEVDEDSVYGVFVSYIEIYNNYIYDLLEEVPFDPIKPKPPQSKLLREDKNHNMYVAGCTEVEVKSTEEAFEVFWRGQKKRRIANTHLNRESSRSHSVFNIKLVQAPLDADGDNVLQEKEQITISQLSLVDLAGSERTNRTRAEGNRLREAGNINQSLMTLRTCMDVLRENQMYGTNKMVPYRDSKLTHLFKNYFDGEGKVRMIVCVNPKAEDYEENLQVMRFAEVTQEVEVARPVDKAICGLTPGRRYRNQPRGPVGNEPLVTDVVLQSFPPLPSCEILDINDEQTLPRLIEALEKRHNLRQMMIDEFNKQSNAFKALLQEFDNAVLSKENHMQGKLNEKEKMISGQKLEIERLEKKNKTLEYKIEILEKTTTIYEEDKRNLQQELETQNQKLQRQFSDKRRLEARLQGMVTETTMKWEKECERRVAAKQLEMQNKLWVKDEKLKQLKAIVTEPKTEKPERPSRERDREKVTQRSVSPSPVPLSSNYIAQISNGQQLMSQPQLHRRSNSCSSISVASCISEWEQKIPTYNTPLKVTSIARRRQQEPGQSKTCIVSDRRRGMYWTEGREVVPTFRNEIEIEEDHCGRLLFQPDQNAPPIRLRHRRSRSAGDRWVDHKPASNMQTETVMQPHVPHAITVSVANEKALAKCEKYMLTHQELASDGEIETKLIKGDIYKTRGGGQSVQFTDIETLKQESPNGSRKRRSSTVAPAQPDGAESEWTDVETRCSVAVEMRAGSQLGPGYQHHAQPKRKKP

binding [3]: binds
B2: myc-tagged SEPT7 (protein, UniProt Q16181 1-437)
chain: MSVSARSAAAEERSVNSSTMVAQQKNLEGYVGFANLPNQVYRKSVKRGFEFTLMVVGESGLGKSTLINSLFLTDLYSPEYPGPSHRIKKTVQVEQSKVLIKEGGVQLLLTIVDTPGFGDAVDNSNCWQPVIDYIDSKFEDYLNAESRVNRRQMPDNRVQCCLYFIAPSGHGLKPLDIEFMKRLHEKVNIIPLIAKADTLTPEECQQFKKQIMKEIQEHKIKIYEFPETDDEEENKLVKKIKDRLPLAVVGSNTIIEVNGKRVRGRQYPWGVAEVENGEHCDFTILRNMLIRTHMQDLKDVTNNVHYENYRSRKLAAVTYNGVDNNKNKGQLTKSPLAQMEEERREHVAKMKKMEMEMEQVFEMKVKEKVQKLKDSEAELQRRHEQMKKNLEAQHKELEEKRRQFEDEKANWEAQQRILEQQNSSRTLEKNKKKGKIF

binding [3]: binds
B3: myc-tagged SEPT9 (protein, UniProt Q9UHD8 1-586)
chain: MKKSYSGGTRTSSGRLRRLGDSSGPALKRSFEVEEVETPNSTPPRRVQTPLLRATVASSTQKFQDLGVKNSEPSARHVDSLSQRSPKASLRRVELSGPKAAEPVSRRTELSIDISSKQVENAGAIGPSRFGLKRAEVLGHKTPEPAPRRTEITIVKPQESAHRRMEPPASKVPEVPTAPATDAAPKRVEIQMPKPAEAPTAPSPAQTLENSEPAPVSQLQSRLEPKPQPPVAEATPRSQEATEAAPSCVGDMADTPRDAGLKQAPASRNEKAPVDFGYVGIDSILEQMRRKAMKQGFEFNIMVVGQSGLGKSTLINTLFKSKISRKSVQPTSEERIPKTIEIKSITHDIEEKGVRMKLTVIDTPGFGDHINNENCWQPIMKFINDQYEKYLQEEVNINRKKRIPDTRVHCCLYFIPATGHSLRPLDIEFMKRLSKVVNIVPVIAKADTLTLEERVHFKQRITADLLSNGIDVYPQKEFDEDSEDRLVNEKFREMIPFAVVGSDHEYQVNGKRILGRKTKWGTIEVENTTHCEFAYLRDLLIRTHMQNIKDITSSIHFEAYRVKRLNEGSSAMANGMEEKEPEAPEM

binding [3]: binds
B4: myc-tagged SEPT5 (protein, UniProt Q99719 1-369)
chain: MSTGLRYKSKLATPEDKQDIDKQYVGFATLPNQVHRKSVKKGFDFTLMVAGESGLGKSTLVHSLFLTDLYKDRKLLSAEERISQTVEILKHTVDIEEKGVKLKLTIVDTPGFGDAVNNTECWKPITDYVDQQFEQYFRDESGLNRKNIQDNRVHCCLYFISPFGHGLRPVDVGFMKALHEKVNIVPLIAKADCLVPSEIRKLKERIREEIDKFGIHVYQFPECDSDEDEDFKQQDRELKESAPFAVIGSNTVVEAKGQRVRGRLYPWGIVEVENQAHCDFVKLRNMLIRTHMHDLKDVTCDVHYENYRAHCIQQMTSKLTQDSRMESPIPILPLPTPDAETEKLIRMKDEELRRMQEMLQRMKQQMQDQ

binding [1]: no binding
binding [2]: binds
B5: anillin (protein, UniProt Q9NQW6 1-1124)
chain: MDPFTEKLLERTRARRENLQRKMAERPTAAPRSMTHAKRARQPLSEASNQQPLSGGEEKSCTKPSPSKKRCSDNTEVEVSNLENKQPVESTSAKSCSPSPVSPQVQPQAADTISDSVAVPASLLGMRRGLNSRLEATAASSVKTRMQKLAEQRRRWDNDDMTDDIPESSLFSPMPSEEKAASPPRPLLSNASATPVGRRGRLANLAATICSWEDDVNHSFAKQNSVQEQPGTACLSKFSSASGASARINSSSVKQEATFCSQRDGDASLNKALSSSADDASLVNASISSSVKATSPVKSTTSITDAKSCEGQNPELLPKTPISPLKTGVSKPIVKSTLSQTVPSKGELSREICLQSQSKDKSTTPGGTGIKPFLERFGERCQEHSKESPARSTPHRTPIITPNTKAIQERLFKQDTSSSTTHLAQQLKQERQKELACLRGRFDKGNIWSAEKGGNSKSKQLETKQETHCQSTPLKKHQGVSKTQSLPVTEKVTENQIPAKNSSTEPKGFTECEMTKSSPLKITLFLEEDKSLKVTSDPKVEQKIEVIREIEMSVDDDDINSSKVINDLFSDVLEEGELDMEKSQEEMDQALAESSEEQEDALNISSMSLLAPLAQTVGVVSPESLVSTPRLELKDTSRSDESPKPGKFQRTRVPRAESGDSLGSEDRDLLYSIDAYRSQRFKETERPSIKQVIVRKEDVTSKLDEKNNAFPCQVNIKQKMQELNNEINMQQTVIYQASQALNCCVDEEHGKGSLEEAEAERLLLIATGKRTLLIDELNKLKNEGPQRKNKASPQSEFMPSKGSVTLSEIRLPLKADFVCSTVQKPDAANYYYLIILKAGAENMVATPLASTSNSLNGDALTFTTTFTLQDVSNDFEINIEVYSLVQKKDPSGLDKKKKTSKSKAITPKRLLTSITTKSNIHSSVMASPGGLSAVRTSNFALVGSYTLSLSSVGNTKFVLDKVPFLSSLEGHIYLKIKCQVNSSVEERGFLTIFEDVSGFGAWHRRWCVLSGNCISYWTYPDDEKRKNPIGRINLANCTSRQIEPANREFCARRNTFELITVRPQREDDRETLVSQCRDTLCVTKNWLSADTKEERDLWMQKLNQVLVDIRLWQPDACYKPIGKP
